# In the supplement of paper PMC10849652:
# Protein sequences, listed by entry. Tags and fused reporters are not part of them. Lines headed by an entry give the natural chain unless they say otherwise; changes in a name come on top.
# UniProt Q9NU19: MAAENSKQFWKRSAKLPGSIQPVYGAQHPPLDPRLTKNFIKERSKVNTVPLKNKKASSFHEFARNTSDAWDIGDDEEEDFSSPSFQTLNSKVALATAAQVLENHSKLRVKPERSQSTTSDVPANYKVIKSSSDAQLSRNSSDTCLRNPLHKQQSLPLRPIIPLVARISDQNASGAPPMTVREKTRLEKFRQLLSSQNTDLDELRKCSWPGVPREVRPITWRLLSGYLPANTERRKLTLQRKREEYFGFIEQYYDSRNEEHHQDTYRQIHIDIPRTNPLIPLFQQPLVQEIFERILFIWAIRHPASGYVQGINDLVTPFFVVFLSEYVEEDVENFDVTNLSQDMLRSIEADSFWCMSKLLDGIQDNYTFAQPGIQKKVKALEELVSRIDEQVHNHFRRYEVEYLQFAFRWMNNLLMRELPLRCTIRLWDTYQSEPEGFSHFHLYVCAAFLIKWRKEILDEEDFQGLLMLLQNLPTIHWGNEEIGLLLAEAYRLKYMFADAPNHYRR
# UniProt A6NFQ2: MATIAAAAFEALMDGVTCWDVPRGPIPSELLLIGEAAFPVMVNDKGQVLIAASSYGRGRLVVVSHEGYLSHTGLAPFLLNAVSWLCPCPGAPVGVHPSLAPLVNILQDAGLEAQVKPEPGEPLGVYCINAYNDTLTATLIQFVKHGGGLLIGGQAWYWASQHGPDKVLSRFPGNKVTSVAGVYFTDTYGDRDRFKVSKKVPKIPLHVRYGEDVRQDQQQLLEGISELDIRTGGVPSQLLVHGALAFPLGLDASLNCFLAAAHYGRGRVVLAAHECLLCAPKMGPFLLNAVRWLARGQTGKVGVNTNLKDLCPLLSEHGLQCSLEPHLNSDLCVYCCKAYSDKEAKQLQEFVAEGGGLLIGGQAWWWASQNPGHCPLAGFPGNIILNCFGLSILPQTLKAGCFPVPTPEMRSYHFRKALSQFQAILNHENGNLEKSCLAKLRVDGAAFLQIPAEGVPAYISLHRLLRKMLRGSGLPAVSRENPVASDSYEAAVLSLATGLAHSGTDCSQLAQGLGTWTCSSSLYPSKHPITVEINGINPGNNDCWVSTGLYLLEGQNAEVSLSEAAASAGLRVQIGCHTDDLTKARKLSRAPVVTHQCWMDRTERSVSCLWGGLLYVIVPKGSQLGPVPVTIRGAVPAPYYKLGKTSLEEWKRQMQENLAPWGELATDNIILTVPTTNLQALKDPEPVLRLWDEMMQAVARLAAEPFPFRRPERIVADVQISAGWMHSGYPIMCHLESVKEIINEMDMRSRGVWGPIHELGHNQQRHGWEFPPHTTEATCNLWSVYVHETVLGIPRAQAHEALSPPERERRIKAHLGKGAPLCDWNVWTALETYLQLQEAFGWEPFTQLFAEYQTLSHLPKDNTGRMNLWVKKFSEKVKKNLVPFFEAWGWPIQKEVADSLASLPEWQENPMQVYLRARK
# UniProt Q9BXI6: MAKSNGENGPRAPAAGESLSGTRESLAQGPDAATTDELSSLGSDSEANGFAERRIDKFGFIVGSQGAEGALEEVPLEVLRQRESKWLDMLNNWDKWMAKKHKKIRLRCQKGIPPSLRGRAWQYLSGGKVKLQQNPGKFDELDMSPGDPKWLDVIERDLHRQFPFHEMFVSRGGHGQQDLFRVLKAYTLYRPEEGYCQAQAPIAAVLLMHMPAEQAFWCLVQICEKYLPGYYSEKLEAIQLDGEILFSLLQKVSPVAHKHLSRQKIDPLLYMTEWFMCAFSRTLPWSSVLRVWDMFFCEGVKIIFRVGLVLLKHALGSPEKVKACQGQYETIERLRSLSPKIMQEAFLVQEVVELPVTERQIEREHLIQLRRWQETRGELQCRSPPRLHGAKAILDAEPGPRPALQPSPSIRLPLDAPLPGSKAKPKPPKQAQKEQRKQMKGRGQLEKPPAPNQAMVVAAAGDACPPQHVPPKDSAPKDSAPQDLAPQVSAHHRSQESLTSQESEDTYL
# UniProt Q9NUW8, whole entry, looked up: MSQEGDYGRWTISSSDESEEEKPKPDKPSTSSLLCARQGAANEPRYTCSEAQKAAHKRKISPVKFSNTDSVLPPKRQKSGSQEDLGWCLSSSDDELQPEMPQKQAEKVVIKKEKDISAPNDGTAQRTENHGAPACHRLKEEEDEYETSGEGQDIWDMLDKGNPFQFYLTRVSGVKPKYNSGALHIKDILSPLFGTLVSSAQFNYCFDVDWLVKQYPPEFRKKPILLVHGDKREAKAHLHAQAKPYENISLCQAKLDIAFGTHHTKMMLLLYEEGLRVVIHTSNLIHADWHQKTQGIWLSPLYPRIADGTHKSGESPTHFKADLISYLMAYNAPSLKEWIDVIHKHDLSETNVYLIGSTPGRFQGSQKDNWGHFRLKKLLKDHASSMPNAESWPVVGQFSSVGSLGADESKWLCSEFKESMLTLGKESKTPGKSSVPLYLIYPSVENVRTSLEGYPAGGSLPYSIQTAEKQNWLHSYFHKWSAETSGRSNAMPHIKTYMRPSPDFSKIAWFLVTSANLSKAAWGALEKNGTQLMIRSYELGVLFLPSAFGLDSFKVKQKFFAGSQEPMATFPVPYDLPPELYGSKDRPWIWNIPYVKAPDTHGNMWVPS
# UniProt Q5JUR7: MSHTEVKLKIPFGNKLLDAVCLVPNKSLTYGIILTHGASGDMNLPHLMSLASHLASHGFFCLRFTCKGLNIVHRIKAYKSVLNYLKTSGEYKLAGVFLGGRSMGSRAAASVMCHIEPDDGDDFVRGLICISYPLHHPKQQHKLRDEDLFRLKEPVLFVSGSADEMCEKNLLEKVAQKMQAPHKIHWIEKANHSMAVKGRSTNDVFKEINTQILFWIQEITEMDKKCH
# UniProt Q00059: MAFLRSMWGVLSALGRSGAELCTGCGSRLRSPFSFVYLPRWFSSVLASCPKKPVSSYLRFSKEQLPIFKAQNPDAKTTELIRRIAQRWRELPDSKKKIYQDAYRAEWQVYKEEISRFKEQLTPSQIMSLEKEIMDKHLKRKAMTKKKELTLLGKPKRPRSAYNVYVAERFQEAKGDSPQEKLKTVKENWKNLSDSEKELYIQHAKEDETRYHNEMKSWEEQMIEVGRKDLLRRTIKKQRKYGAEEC
# UniProt P17542, whole entry, looked up: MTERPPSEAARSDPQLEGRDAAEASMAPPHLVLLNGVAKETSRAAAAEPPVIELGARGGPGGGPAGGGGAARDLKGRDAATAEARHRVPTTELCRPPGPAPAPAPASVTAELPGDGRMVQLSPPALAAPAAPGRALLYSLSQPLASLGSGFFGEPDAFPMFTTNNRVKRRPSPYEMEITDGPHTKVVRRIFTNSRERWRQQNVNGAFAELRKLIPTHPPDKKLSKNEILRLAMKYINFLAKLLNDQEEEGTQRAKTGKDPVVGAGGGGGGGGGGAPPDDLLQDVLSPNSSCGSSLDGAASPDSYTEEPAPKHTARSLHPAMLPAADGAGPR
# UniProt Q8TC07: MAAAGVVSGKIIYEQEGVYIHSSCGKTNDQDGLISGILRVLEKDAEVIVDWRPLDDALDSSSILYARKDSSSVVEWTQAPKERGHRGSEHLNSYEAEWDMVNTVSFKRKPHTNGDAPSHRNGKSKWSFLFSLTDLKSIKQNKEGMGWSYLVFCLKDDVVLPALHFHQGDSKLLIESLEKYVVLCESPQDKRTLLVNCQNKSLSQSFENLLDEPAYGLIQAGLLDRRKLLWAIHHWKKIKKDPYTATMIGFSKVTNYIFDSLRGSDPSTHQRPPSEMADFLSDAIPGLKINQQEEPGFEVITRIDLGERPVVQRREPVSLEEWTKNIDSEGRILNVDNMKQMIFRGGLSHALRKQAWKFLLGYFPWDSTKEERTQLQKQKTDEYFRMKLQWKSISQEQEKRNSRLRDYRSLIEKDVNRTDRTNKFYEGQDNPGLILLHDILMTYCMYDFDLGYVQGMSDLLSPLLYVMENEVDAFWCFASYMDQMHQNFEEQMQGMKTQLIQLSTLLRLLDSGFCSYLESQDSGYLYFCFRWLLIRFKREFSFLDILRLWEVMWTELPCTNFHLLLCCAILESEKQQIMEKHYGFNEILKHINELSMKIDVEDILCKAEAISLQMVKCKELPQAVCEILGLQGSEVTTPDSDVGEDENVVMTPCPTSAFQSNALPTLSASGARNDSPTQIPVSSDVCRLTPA
# UniProt Q9H7E2: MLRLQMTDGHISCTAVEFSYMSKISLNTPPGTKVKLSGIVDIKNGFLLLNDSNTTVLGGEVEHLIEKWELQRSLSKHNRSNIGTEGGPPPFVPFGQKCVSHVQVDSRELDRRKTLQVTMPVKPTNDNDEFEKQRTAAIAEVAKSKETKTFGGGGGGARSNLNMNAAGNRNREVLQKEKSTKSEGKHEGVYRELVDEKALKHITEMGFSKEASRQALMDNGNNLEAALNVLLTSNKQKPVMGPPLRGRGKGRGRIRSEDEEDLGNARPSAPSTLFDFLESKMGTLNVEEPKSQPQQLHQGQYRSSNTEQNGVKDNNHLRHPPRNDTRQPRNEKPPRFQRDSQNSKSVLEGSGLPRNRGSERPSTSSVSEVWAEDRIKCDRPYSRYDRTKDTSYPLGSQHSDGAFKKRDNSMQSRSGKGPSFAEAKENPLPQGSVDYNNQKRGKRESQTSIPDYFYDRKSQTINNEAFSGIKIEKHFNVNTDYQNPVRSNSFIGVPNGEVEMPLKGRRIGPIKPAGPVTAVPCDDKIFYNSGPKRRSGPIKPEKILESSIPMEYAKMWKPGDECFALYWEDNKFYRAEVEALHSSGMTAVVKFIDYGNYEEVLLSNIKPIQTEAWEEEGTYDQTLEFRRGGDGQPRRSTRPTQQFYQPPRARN
# UniProt Q14186: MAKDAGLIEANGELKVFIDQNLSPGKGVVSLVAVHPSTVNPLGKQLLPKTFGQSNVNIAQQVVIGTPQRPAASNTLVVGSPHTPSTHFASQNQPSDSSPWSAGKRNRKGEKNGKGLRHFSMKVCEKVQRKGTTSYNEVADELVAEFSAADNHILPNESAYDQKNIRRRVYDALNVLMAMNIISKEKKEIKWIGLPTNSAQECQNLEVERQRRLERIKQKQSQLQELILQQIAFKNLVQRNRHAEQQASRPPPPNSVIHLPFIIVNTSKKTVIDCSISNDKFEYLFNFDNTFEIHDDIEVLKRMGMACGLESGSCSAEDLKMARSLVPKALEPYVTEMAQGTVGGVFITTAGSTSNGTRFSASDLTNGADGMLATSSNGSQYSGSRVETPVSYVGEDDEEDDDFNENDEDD
# UniProt Q14188: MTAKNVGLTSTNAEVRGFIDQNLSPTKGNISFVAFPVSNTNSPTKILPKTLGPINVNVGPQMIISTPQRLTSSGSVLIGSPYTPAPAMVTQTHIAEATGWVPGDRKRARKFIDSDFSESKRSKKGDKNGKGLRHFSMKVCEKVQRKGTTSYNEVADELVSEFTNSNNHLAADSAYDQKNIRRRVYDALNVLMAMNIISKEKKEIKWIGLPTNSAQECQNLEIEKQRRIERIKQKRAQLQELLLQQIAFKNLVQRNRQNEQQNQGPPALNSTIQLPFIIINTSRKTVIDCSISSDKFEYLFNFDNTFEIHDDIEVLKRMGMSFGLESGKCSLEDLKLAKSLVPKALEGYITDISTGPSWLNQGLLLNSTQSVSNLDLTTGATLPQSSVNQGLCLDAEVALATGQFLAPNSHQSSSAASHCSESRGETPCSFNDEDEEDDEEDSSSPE
# UniProt Q9HA65: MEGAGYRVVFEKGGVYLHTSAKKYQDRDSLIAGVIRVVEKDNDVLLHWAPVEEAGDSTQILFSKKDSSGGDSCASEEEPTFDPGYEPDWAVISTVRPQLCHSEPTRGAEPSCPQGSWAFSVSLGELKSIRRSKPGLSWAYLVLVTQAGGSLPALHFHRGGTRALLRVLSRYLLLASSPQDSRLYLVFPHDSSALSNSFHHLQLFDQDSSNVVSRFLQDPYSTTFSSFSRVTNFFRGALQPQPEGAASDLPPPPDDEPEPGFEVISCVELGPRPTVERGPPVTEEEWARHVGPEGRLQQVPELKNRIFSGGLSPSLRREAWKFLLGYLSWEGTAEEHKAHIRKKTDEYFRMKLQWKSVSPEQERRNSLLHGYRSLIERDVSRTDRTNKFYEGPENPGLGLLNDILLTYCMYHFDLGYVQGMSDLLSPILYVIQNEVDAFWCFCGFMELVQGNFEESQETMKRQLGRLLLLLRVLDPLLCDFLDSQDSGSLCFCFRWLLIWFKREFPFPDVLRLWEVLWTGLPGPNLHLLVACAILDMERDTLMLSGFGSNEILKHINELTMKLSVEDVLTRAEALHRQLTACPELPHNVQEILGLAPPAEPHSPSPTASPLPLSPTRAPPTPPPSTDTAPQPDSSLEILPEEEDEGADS
# UniProt O75347: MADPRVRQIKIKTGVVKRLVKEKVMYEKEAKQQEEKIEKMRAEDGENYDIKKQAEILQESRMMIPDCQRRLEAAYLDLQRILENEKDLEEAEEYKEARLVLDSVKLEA
# Some of the results follow.
# Compound: C=CC(=O)N1CCC[C@@H](n2nc(-c3ccc(Oc4ccccc4)cc3)c3c(N)ncnc32)C1 [ibrutinib]
# Assay: log2 fold change, soluble protein after heating vs DMSO (PISA); higher = thermal stabilisation; K562 lysate, 10 uM; active = over 0.2 and 3.5 SD of the protein, either way, in both replicates (recomputed)
# Outline: (§1)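 K562 pellets were dounce-homogenised in PBS pH 7.4 with 1 mM MgCl2, and the crude extract at 1 mg/mL protein was treated with 10 μM compound for 30 min. Aliquots were heated for 3 min across 48°C-58°C, pooled, and brought to 0.5% NP-40 at 4°C; soluble protein was the supernatant after 21,000xg for 90 min. Soluble protein was quantified by TMTpro 16plex LC-MS/MS with channel sums equalised, and reported as log2 fold change in thermal stability against DMSO controls, with values from duplicates.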
row,Target,log2 fold change
1,TBL1XR1 (UniProt Q9BZK7),inactive: 0.029
2,TBC1D22B (UniProt Q9NU19),inactive: -0.006
3,TF (UniProt P02787),inactive: -0.031
4,TCAF2 (UniProt A6NFQ2),inactive: 0.009
5,TBC1D22A (UniProt Q8WUA7),inactive: -0.036
6,TEX10 (UniProt Q9NXF1),inactive: 0.072
7,TBC1D10A (UniProt Q9BXI6),inactive: 0.034
8,TALDO1 (UniProt P37837),inactive: -0.009
9,TDP1 (UniProt Q9NUW8),inactive: 0.077
10,TEX30 (UniProt Q5JUR7),inactive: 0.17
11,TCEA1 (UniProt P23193),inactive: 0.003
12,TFAM (UniProt Q00059),inactive: 0.014
13,TARBP2 (UniProt Q15633),inactive: -0.013
14,TCP1 (UniProt P17987),inactive: -0.024
15,TAL1 (UniProt P17542),inactive: 0.005
16,TBRG4 (UniProt Q969Z0),inactive: 0.014

row,Target,log2 fold change
1,TBC1D15 isoform 3 (UniProt Q8TC07),inactive: 0.014
2,TDRD3 isoform 3 (UniProt Q9H7E2),inactive: -0.03
3,TAPT1 (UniProt Q6NXT6),inactive: 0.071
4,TFDP1 (UniProt Q14186),inactive: 0.005
5,TAF6L (UniProt Q9Y6J9),inactive: 0.072
6,TBC1D9B isoform 2 (UniProt Q66K14),inactive: 0.004
7,TFR2 (UniProt Q9UP52),inactive: 0.031
8,TBKBP1 (UniProt A7MCY6),inactive: 0.016
9,TBCC (UniProt Q15814),inactive: 0.003
10,TFDP2 (UniProt Q14188),inactive: 0.095
11,TERF2IP (UniProt Q9NYB0),inactive: 0.02
12,TAMM41 isoform 3 (UniProt Q96BW9),inactive: 0.118
13,TBC1D17 (UniProt Q9HA65),inactive: 0.015
14,TBX1 isoform 3 (UniProt O43435),inactive: -0.016
15,TARS1 (UniProt P26639),inactive: 0.002
16,TBCA (UniProt O75347),inactive: 0.02

# Compound: CC(=O)c1cnc2ccc(-c3cc(Cl)c(O)c(Cl)c3)nc2c1N[C@H]1CC[C@H](CN(C)C)CC1
# Assay: as above
# Outline: as §1
row,Target,log2 fold change
1,TBL1XR1 (UniProt Q9BZK7),inactive: 0.004
2,TBC1D22B (UniProt Q9NU19),inactive: 0.096
3,TF (UniProt P02787),inactive: -0.034
4,TCAF2 (UniProt A6NFQ2),inactive: -0.009
5,TBC1D22A (UniProt Q8WUA7),inactive: -0.013
6,TEX10 (UniProt Q9NXF1),inactive: -0.012
7,TBC1D10A (UniProt Q9BXI6),inactive: 0.02
8,TALDO1 (UniProt P37837),inactive: 0.019
9,TDP1 (UniProt Q9NUW8),inactive: 0.03
10,TEX30 (UniProt Q5JUR7),inactive: 0.003
11,TCEA1 (UniProt P23193),inactive: 0.001
12,TFAM (UniProt Q00059),inactive: 0
13,TARBP2 (UniProt Q15633),inactive: 0
14,TCP1 (UniProt P17987),inactive: -0.014
15,TAL1 (UniProt P17542),inactive: 0.001
16,TBRG4 (UniProt Q969Z0),inactive: 0.025
17,TBC1D15 isoform 3 (UniProt Q8TC07),inactive: 0.01
18,TDRD3 isoform 3 (UniProt Q9H7E2),inactive: 0.009
19,TAPT1 (UniProt Q6NXT6),inactive: 0.012
20,TFDP1 (UniProt Q14186),inactive: -0.014
21,TAF6L (UniProt Q9Y6J9),inactive: 0.046
22,TBC1D9B isoform 2 (UniProt Q66K14),inactive: -0.041
23,TFR2 (UniProt Q9UP52),inactive: 0.003
24,TBCC (UniProt Q15814),inactive: 0.012
25,TFDP2 (UniProt Q14188),inactive: 0.08
26,TERF2IP (UniProt Q9NYB0),inactive: -0.012
27,TAMM41 isoform 3 (UniProt Q96BW9),inactive: 0.022
28,TBC1D17 (UniProt Q9HA65),inactive: 0.014
29,TARS1 (UniProt P26639),inactive: -0.011
30,TBCA (UniProt O75347),inactive: 0.043

# Compound: CC(C)(C)Cn1c(N)nc2ccc(-c3[nH]c(C(C)(C)C)nc3-c3ccc(F)cc3)nc21 [ralimetinib]
# Assay: as above
# Outline: as §1
row,Target,log2 fold change
1,TBL1XR1 (UniProt Q9BZK7),inactive: 0.03
2,TBC1D22B (UniProt Q9NU19),inactive: -0.014
3,TF (UniProt P02787),inactive: 0.022
4,TCAF2 (UniProt A6NFQ2),inactive: 0.078
5,TBC1D22A (UniProt Q8WUA7),inactive: 0.059
6,TEX10 (UniProt Q9NXF1),inactive: 0
7,TBC1D10A (UniProt Q9BXI6),inactive: 0.017
8,TALDO1 (UniProt P37837),inactive: -0.011
9,TDP1 (UniProt Q9NUW8),inactive: -0.118
10,TEX30 (UniProt Q5JUR7),inactive: 0.047
11,TCEA1 (UniProt P23193),inactive: -0.023
12,TFAM (UniProt Q00059),inactive: -0.043
13,TARBP2 (UniProt Q15633),inactive: -0.025
14,TCP1 (UniProt P17987),inactive: -0.01
15,TAL1 (UniProt P17542),inactive: 0.011
16,TBRG4 (UniProt Q969Z0),inactive: 0.002
17,TBC1D15 isoform 3 (UniProt Q8TC07),inactive: -0.013
18,TDRD3 isoform 3 (UniProt Q9H7E2),inactive: -0.094
19,TAPT1 (UniProt Q6NXT6),inactive: -0.029
20,TFDP1 (UniProt Q14186),inactive: -0.008
21,TAF6L (UniProt Q9Y6J9),inactive: 0.042
22,TBC1D9B isoform 2 (UniProt Q66K14),inactive: 0.03
23,TFR2 (UniProt Q9UP52),inactive: 0.003
24,TBCC (UniProt Q15814),inactive: 0.002
25,TFDP2 (UniProt Q14188),inactive: 0.009
26,TERF2IP (UniProt Q9NYB0),inactive: 0.025
27,TAMM41 isoform 3 (UniProt Q96BW9),inactive: 0.026
28,TBC1D17 (UniProt Q9HA65),inactive: 0.038
29,TARS1 (UniProt P26639),inactive: 0.007
30,TBCA (UniProt O75347),inactive: 0.032
